# Data reported in PubChem BioAssay AID2685 (National Center for Advancing Translational Sciences (NCATS), 2010).
# Some of the results follow. Further columns of the screen follow, without active or inactive calls. The list favours compounds with an active or inconclusive main result. The note in brackets gives the kind of curve behind each potency; many fits are weak.
# Assay: qHTS Assay for Lipid Storage Modulators in Drosophila S3 Cells;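 as to cell number change: cells counted by Cell Tracker Red CMTPX staining in the red channel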
# Conditions: BODIPY lipid droplet fluorescence, 18-24 h; for cell number change: measured here: cell count max response, cells fed with added oleic acid
# How it was run: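 Drosophila S3 cells loaded with oleic acid (400 uM, as added) and compounds at several concentrations; lipid droplets imaged by 488-nm laser-scanning cytometry, 500–530 nm intensity and object ratio to cell channel. Percent activity normalized to 20 uM Triacsin C.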
# [1] = measured here: lipid fluorescence (Fed channel) AC50, cells fed with added oleic acid
# [2] = measured here: cell number channel AC50, cells fed with added oleic acid
Compound,cell number change [%],AC50 [1],AC50 [2]
COc1ccc(Cl)cc1-c1nc(-c2ccncc2)no1,-18.2,"1.46 µM [rising, partial curve]",–
CN(CC(=O)Nc1ccc(F)cc1)C(=O)c1cccc(NS(=O)(=O)c2ccccc2)c1,38.3,"32.6 µM [rising, single point]","29.1 µM [rising, single point]"
O=C1NCCCC1C(=O)N1CCN(C(c2ccccc2)c2ccccc2)CC1 (centres undefined),-5.83,"11.6 µM [falling, partial curve]","4.61 µM [falling, single point]"
Cc1cc2cc3c(cc2nc1SCc1ccccn1)OCCO3,-2.2,"4.11 µM [rising, single point]",–
CC1CCCCC1NC(=O)COC(=O)COc1ccc(Cl)cc1 (centres undefined),-9.19,–,–
COC(=O)c1ccccc1NC(=O)COc1ccc(S(=O)(=O)N2CCCC2)cc1C,10.5,"2.06 µM [rising, partial curve, poor fit]",–
O=C(NC1CCCCCCC1)c1ccccc1O,-8.72,"0.231 µM [falling, full curve]",–
CCCCCn1c(CN2CCN(C(=O)OCC)CC2)nc2c1c(=O)[nH]c(=O)n2C,28.9,–,"1.84 µM [rising, full curve, poor fit]"
CCCOc1ccc(N2C(=O)CC(N3CCC(C(=O)OCC)CC3)C2=O)cc1 (centres undefined),4.98,–,–
CC1CC(=O)Nc2ccccc2N1S(=O)(=O)c1ccc(Br)cc1 (centres undefined),-30.2,"1.3 µM [falling, full curve]","0.92 µM [falling, full curve]"
O=C(NC12CC3CC(CC(C3)C1)C2)c1ccc([N+](=O)[O-])o1,-52.2,"6.51 µM [falling, full curve]","8.2 µM [falling, partial curve]"
CSc1oc(-c2ccco2)nc1S(=O)(=O)c1ccccc1,–,"18.4 µM [rising, partial curve, poor fit]",–
COCC(=O)Nc1nc2ccccc2s1,7.72,"29.1 µM [rising, single point]",–
CCC1CCCCN1S(=O)(=O)c1ccc(C(=O)Nc2nnc(-c3cccs3)o2)cc1 (centres undefined),-13,"14.6 µM [falling, single point]",–
CCCCn1c(N)c(N(CC)C(=O)c2cnc(C)cn2)c(=O)[nH]c1=O,2.13,"2.06 µM [rising, full curve]","1.46 µM [falling, partial curve]"
Cc1ccc(Cl)cc1N1CCN(C(=O)c2cn(C)c(=O)c3c2c2ccccc2n3C)CC1,9.33,"0.517 µM [rising, full curve]",–
CO/N=C/C(=N\Nc1cc(OC)cc(OC)c1)C(=O)c1ccccc1,9.78,–,–
O=C(NCCC1=CCCCC1)C1CCCN(S(=O)(=O)c2cnc[nH]2)C1 (centres undefined),25,–,–
CCn1c(O)c(C=Nc2ccccc2)n(-c2ccccc2)c1=S,46,–,"7.31 µM [rising, full curve]"
CN(C(=O)CSc1nc(-c2ccccc2)c(-c2ccccc2)o1)C1CCS(=O)(=O)C1 (centres undefined),-2.2,–,–

Compound,cell number change [%],AC50 [1],AC50 [2]
CCC(CC)C(=O)NCCNC(=O)C(CC)CC,4.52,–,–
Cc1ccc(C(C)(C)C)cc1S(=O)(=O)Nc1cccc(C(=O)N2CCN(c3ccccn3)CC2)c1,–,"0.13 µM [falling, full curve, poor fit]",–
O=C(NNc1nc(=O)c2cccnc2s1)c1ccccc1O,-57.5,"10.3 µM [falling, partial curve]","7.31 µM [falling, partial curve]"
c1ccc(-n2nnc(-c3cccnc3)n2)cc1,-10.5,"7.31 µM [falling, partial curve, poor fit]",–
CCCc1nccn1S(=O)(=O)c1cc(OC)ccc1OC,21,"6.51 µM [falling, single point]",–
CN1CCN(C(=O)c2ccc3ccccc3c2)CC1,-15.2,"0.0058 µM [falling, full curve, poor fit]",–
Cc1ccc2c(CN3CCN(C(=O)c4ccco4)CC3)cc(=O)oc2c1C,16.8,–,–
COc1ccccc1NC(=O)CSc1nnc(-c2ccncc2)n1CC1CCCO1 (centres undefined),-3.13,"10.3 µM [rising, partial curve, poor fit]",–
O=C(NC(=O)N1CCCCCC1)c1ccccc1,-2.02,"25.9 µM [rising, single point]",–
O=C(O)CC(NC(=O)C12CC3CC(CC(C3)C1)C2)c1ccc(OC2CCCC2)cc1 (centres undefined),-12.9,"3.26 µM [falling, full curve, poor fit]",–
Cc1cc(C)nc(SCC(=O)Nc2ccc(S(=O)(=O)Nc3ncccn3)cc2)n1,-11.7,"3.26 µM [rising, partial curve]",–
CCOC(=O)Cn1ccc(NC(=O)COc2ccc(F)cc2F)n1,-13.9,"23.1 µM [rising, single point]",–
N/C(=N\OC(=O)CCCOc1ccccc1)c1ccncc1,24.4,"0.146 µM [rising, full curve, poor fit]","0.0291 µM [rising, full curve, poor fit]"
COc1cc(C2NC(=O)NC(c3ccccc3)=C2C(C)=O)c(Br)cc1OCC(N)=O (centres undefined),33,"29.1 µM [rising, single point]","0.0206 µM [rising, full curve, poor fit]"
CCC(C)(C)NC(=O)CN(C(=O)C(=O)Nc1ccc2c(c1)OCCO2)N1CCOCC1,-3.85,"0.0206 µM [falling, full curve, poor fit]",–
CC(=O)c1ccc2cccc3c2c1N=CN3C,-40.9,"32.6 µM [falling, single point]","7.31 µM [falling, full curve, poor fit]"
Cc1cccc(C(=O)Nc2nsc(N)n2)c1,27.7,"18.4 µM [rising, single point]",–
O=c1cc([O-])[n+]2c3n1CCCN3CCC2,-64.4,"29.1 µM [falling, single point]","0.92 µM [falling, full curve, poor fit]"
FC(F)(F)c1nc2ccccc2c2nc3ccccc3n12,-1.61,"5.8 µM [rising, partial curve, poor fit]",–
CCOc1ccc(C(=O)NC(C(=O)N2CCC2)C(C)C)cc1 (centres undefined),3.21,–,–

Compound,cell number change [%],AC50 [1],AC50 [2]
CC1CC(C)CN(C(=O)COC(=O)c2ccc3c(c2)C(=O)N(Cc2ccco2)C3=O)C1 (centres undefined),0.648,–,–
Cc1cc(C)n(-c2nc3ccccc3nc2N2CCN(S(=O)(=O)c3cccc(C#N)c3)CC2)n1,42.9,–,"29.1 µM [rising, single point]"
NNC(=O)c1ccccc1OCCOc1ccccc1,1.71,–,–
Cc1cc(=O)oc2cc(OC(C)C(=O)Nc3ccc(N4CCCCC4)cc3)ccc12 (centres undefined),44.5,"0.103 µM [rising, full curve, poor fit]","0.92 µM [rising, full curve]"
CCC(C)(CC(=O)N(C)CCC#N)c1ccccc1 (centres undefined),13.7,"20.6 µM [falling, partial curve]",–
CC(C)(C)c1ccccc1OCCCCN1CCCC1,16.3,"0.082 µM [falling, full curve, poor fit]",–
CCCc1cc(=O)n2[nH]c(C(F)(F)F)nc2n1,16.2,"6.51 µM [falling, single point]",–
CCC(=O)c1ccc(OCC(O)CN2CC(C)OC(C)C2)cc1 (centres undefined),-0.641,"0.82 µM [falling, full curve, poor fit]",–
CCOC(=O)CSC1=N/C(=C\c2cc(OC)c(OC)c(OC)c2)C(=O)N1C,41.1,"7.31 µM [rising, partial curve]","9.2 µM [rising, partial curve, poor fit]"
O=[N+]([O-])c1ccc(Sc2cc[n+]([O-])c3ccccc23)c([N+](=O)[O-])c1,15.9,–,–
CN1C(=O)/C(=C/c2ccccc2F)Sc2ccc(C(=O)NCC3CCCO3)cc21 (centres undefined),–,"6.51 µM [falling, single point]",–
CC1CCC(C(C)C)C(OCC(O)CN2CCN(Cc3ccccc3)CC2)C1 (centres undefined),-42.5,"18.4 µM [falling, partial curve]","20.6 µM [falling, single point]"
COc1ccc(NC(=O)C(NCC(C)C)c2ccccc2)cc1Cl (centres undefined),–,"5.17 µM [rising, single point]",–
CS(=O)(=O)N1Cc2ccccc2CC1C(=O)Nc1ccccc1C(N)=O (centres undefined),0.69,"4.11 µM [rising, partial curve]","2.06 µM [rising, partial curve, poor fit]"
CCCOc1ccc(/C=C2\SC(=S)N(CC3CCCO3)C2=O)cc1 (centres undefined),39.4,–,"29.1 µM [rising, single point]"
C=C(C)Cn1c(SCC(=O)O)nnc1-c1ccc(OC)cc1,-32.9,"4.61 µM [falling, full curve, poor fit]","0.116 µM [falling, full curve, poor fit]"
O=C(Nc1ccccc1)c1ccc(NCC2CCCO2)c(S(=O)(=O)N2CCOCC2)c1 (centres undefined),-26,"16.4 µM [falling, partial curve, poor fit]",–
Cc1ccc(NC(=O)Cc2nnc(SCC(=O)c3ccc(Br)cc3)n2C)cc1Cl,1.63,–,–
Cc1ccc(-c2nc(-c3ccccn3)sc2CC(=O)O)cc1,15.8,"29.1 µM [rising, single point]",–
CCOC(=O)c1nc(N/N=C/c2ccccc2)sc1Br,-28.6,"20.6 µM [falling, single point]",–

# Single records, from the list above. Values in the order: cell number change [%]	AC50 [1]	AC50 [2]
# NNC(=O)c1ccccc1OCCOc1ccccc1 in the list: 1.71	–	–
# CCCOc1ccc(/C=C2\SC(=S)N(CC3CCCO3)C2=O)cc1 (centres undefined) in the list: 39.4	–	29.1 µM [rising, single point]
